Experiment: Diffusion testing (dye leaching from dyed tresses into water, UV-vis absorbance)
Conditions: normalized absorbance
Protocol: The compositions tested were formulated by mixing a tint component according to the formulation below with a developer component in a 1:1 ratio. The developer component is a commercially available Welloxon developer at 6% (20 vol) peroxide concentration. In all the tests, white hair was used (1.5 g tresses). 3 g tint component+3 g developer component were applied for each switch for 30 minutes at 30° C. The tresses were rinsed for 2 minutes including 30 seconds shampoo.
The diffusion testing protocol measures the ability for the dye to stay within the hair when the fibers are wet. In this test, dyed tresses of hair are prepared as indicated above and then separately immersed in a 1 litre beaker containing 900.0 g water. The beaker is placed in the center of a stir plate and the tress is attached to a clamping device that is used to lower the tress into the beaker. When in the beaker, the tress remains above the stir bar in the center of the beaker, the tress is lowered until the water line is at the top of the hair tress. The stir plate is turned on so that the stir bar would spin at approximately 100 rpm. All tresses are tested at the same spin rate. The tress is left in the beaker with stir bar rotating for three hours. After three hours, the tresses are removed. The absorbance spectrum of the solution is measured using a UV-vis spectrophotometer to characterize the amount of dye that diffused out of the hair into the solution at regular time interval. A full absorbance spectrum from 400 to 700 nm is measured and the absorbance at the peak maximum is measured for each case.
The absorbance values for the C5 and C6 alkyldiaminopyrazole combinations are normalized and account for differences in starting dye concentrations in the hair fibers.
The absorbance values for the C5 and C6 alkyldiaminopyrazole combinations are normalized and account for differences in starting dye concentrations in the hair fibers

Q: Which “intercept of equation of line (absorbance of the solution)” value (“intercept of equation of line” for short) (FIG. 1, tint A) does the source give for `CCCCCn1ncc(N)c1N` [C5, 4,5-diamino-1-pentylpyrazole] here?
A: Its value is 0.0332.

Q: And the “intercept of equation of line” value (FIG. 2, tint B)?
A: The value was 0.1551.

Q: For `CCCCCCn1ncc(N)c1N` [C6, 1-hexyl-4,5-diaminopyrazole], which “intercept of equation of line” value (FIG. 1, tint A) is on record?
A: The value was 0.0217.

Q: And the “intercept of equation of line” value (FIG. 2, tint B)?
A: The value was 0.024.
